Primary screen of a compound library

Data taken from ChEMBL document CHEMBL3988442, “University of Dundee, Small-Polar-MMV Screening Library” (2021).

Each number is a percent effect as filed. The record does not define 0% and 100%; most values in the screen are far below 50% and negative numbers occur (in some assays of this library far below -100). This is an unselected part of the compounds tested. Two or more numbers in one place are separate tests of the same structure; such repeats can differ widely.

Mtb cholesterol medium: 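Whole-cell growth test on Mycobacterium tuberculosis, read after 4 days in a medium based on cholesterol and the lipid DPPC; the read-out is not stated. Tested at 50 µM. Direction is inferred from retests: higher values go with more growth inhibition. Size under these conditions: about 69,000 compounds, about 370 of them at 50% or above in at least one test.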
Mtb glucose medium: 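Phenotypic screen: M. tuberculosis growth, glucose 7H9 medium, 3 days; the read-out is not stated. Tested at 50 µM. Higher reads as more growth inhibition (inferred: compounds with an IC50 in retests scored well above the rest). Size under these conditions: about 69,000 compounds, about 760 of them at 50% or above in at least one test.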

Compound,Mtb cholesterol medium,Mtb glucose medium
O=C(COCC(F)(F)C(F)F)N1CCC(c2ncc[nH]2)CC1,-2.737,-25.17
Cc1cnn(C2(C(=O)O)CCN(Cc3oc4ccccc4c3C)CC2)c1,0.004782,-20
Cc1ccccc1C1CCN(C(=O)CCNC(=O)C(C)(C)C)C1 (stereo not drawn),-2.861,14.86
CNC(=O)c1nc2c(s1)CCN(C(=O)c1ccccc1)CC2,-4.35,13.13 and -2.675
COc1cccc(-c2n[nH]c3c2CN(C(=O)c2ccncc2)CC3)c1,-2.827 and 10.1,1.749
CS(=O)(=O)NCc1cc2n(n1)CCCN(Cc1cc3ccccc3o1)C2,-5.666,-9.311
Cc1cc2n(n1)CC(CNC1CCN(C(=O)C3CC3)CC1)CN2 (stereo not drawn),-3.484,20.01 and -3.132
COc1ccc(NC(=O)N2CCC(c3nnc[nH]3)CC2)cc1C,5.352,9.742
NCCC(Cc1ccccc1)c1ccco1 (stereo not drawn),-29.98,-13.52 and -41.32
CCNC(=O)NC(=O)CN1CCOC(c2cccc(Br)c2)C1 (stereo not drawn),-1.548,13.82 and 4.307
Cc1n[nH]cc1CNCc1cccc(OCC(F)(F)F)c1.Cl,-14.03,-13.1 and 1.508
Cc1c(C(=O)N(C)CC(F)(F)F)nnn1-c1ccc(F)cc1,5.802,15.24
Cc1ccc(S(=O)(=O)Nc2c(C)nc(N3CCCC3)nc2C)cc1,19.47,22.13 and 6.962
CCC(=O)N1CCCC1c1n[nH]cc1-c1ccccc1F (stereo not drawn),14.83,23.39
Cc1csc2c(N3CCC(NCCCc4cnn(C)c4)CC3)ncnc12,-2.826 and -3.662,-18.55
Cc1csc(C2(NCC(O)COC(C)C)CCCC2)n1 (stereo not drawn),-0.02518,5.461
c1cncc(C(Cn2cnnc2)N2CCOCC2)c1 (stereo not drawn),-6.411 and -19.23,5.079
Cc1cc(OCc2ccc(C(=O)O)s2)ccc1Cl,2.749,2.197
COc1ccc(CCCN(C)C(=O)c2cc(C(C)=O)c[nH]2)cc1OC,-12.37,-11.22
COCCOCC(=O)N1CCCC(c2ncc[nH]2)C1 (stereo not drawn),7.739,-8.543
CCC(c1ccncc1)N(C)S(C)(=O)=O (stereo not drawn),-25.17,1.797
O=C(CCc1ccsc1)N1CCCCC1Cn1cccn1 (stereo not drawn),1.426,14.19
[H][C@]12CN(Cc3cccc(F)c3)CC[C@@]1(O)CCN(S(=O)(=O)N(C)C)C2,-6.777,-37.66
Cn1nc(C2CCNCC2)c2c(C(=O)NC3CC3)cc(C3CC3)nc21,15.38,9.864
Cc1cccc(C2CCCN(C(=O)c3ccncc3)C2)n1 (stereo not drawn),-7.541,10.93
Cc1nn(C)c(N(C)C)c1CNCc1ccnc(N2CCOCC2)c1,-9.672,-21.89
O=S(=O)(c1cn[nH]c1)N1CCC(O)(CN2CCOCC2)C1 (stereo not drawn),-5.701 and -14.04,-4.89
[H][C@]12CC[C@]([H])(CN(Cc3ccc(F)cc3)C1)N(Cc1snnc1C)C2,-12.49,13.29
Cc1cc2nc(C(C)C)cc(N3CCN(S(N)(=O)=O)CC3)n2n1,13.48,37.96
CNc1ncc(CN2CCC(CCc3ccccc3)CC2)cn1,-1.809,14.21
O=C(O)c1cc(-c2ccccc2)ns1,-25.62,-9.332 and -2.797
CCn1cc(CN2CCCN(C(=O)c3ccccc3OC)CC2)cn1,21.99,-1.335
[H][C@@]12CCN(C(=O)c3ccc(F)c(F)c3)C[C@]1(COC)CCO2,-8.981,-6.939
Cc1ccc(F)cc1S(=O)(=O)Nc1ccc2c(C(=O)O)c[nH]c2c1,-4.809,5.234
COCCn1ccnc1C1CCCN(C(=O)c2cccnc2SC)C1 (stereo not drawn),-23.98,-1.486 and -11.86
O=C(c1ccn(-c2ccccc2Cl)n1)N1CCSCC1,2.712,11.47
O=C(NC1CC1)c1nc(COc2ccc3c(c2)OCO3)no1,18.68,25.53
CC(Cc1ccco1)NC(=O)Nc1ccc(N2CCCC2)nc1 (stereo not drawn),16.42,14.95
CCN(CC)c1ncc(Cl)c(C(=O)NC2CCC(O)CC2)n1 (stereo not drawn),-5.873,-4.803
c1cnc(Nc2ccc(C3CCCCN3)cn2)cn1 (stereo not drawn),-13.84,-0.7945
COc1ccccc1-c1csc(-c2cccc(C(=O)O)c2)n1,2.373,21.16 and -5.789
[H][C@@]12CCN(C3CCOCC3)C[C@]1([H])O[C@H](C(=O)N(C)C)C2,-33.09,-32.81
O=C(O)C(F)(F)F.O=C(c1cccs1)N1CCC[C@]2(C[C@@H](OCc3ccncc3)CO2)C1,13.73,-1.175 and 1.221
Cc1cc(C)n(CC2CCCCN2CC(=O)Nc2cccnc2)n1 (stereo not drawn),4.163,-26.56
O=C(N[C@H]1CCCC[C@@H]1O)c1cccc(-c2nc3ccccc3[nH]2)c1,-3.3,24.57
O=C(CCC1CC1)N1CCC(n2cc(C3(O)CCCC3)nn2)CC1,-32.2,-29
O=C(NCc1cccnc1)C1=NOC2(CCCN(CCO)C2)C1 (stereo not drawn),-0.6867,-5.81 and -3.432
O=C(NC[C@H]1Cn2c(-c3ccccc3)cnc2CO1)C1CCOCC1,-3.359,4.31 and -1.414
CN1CCC2(CC1)C(=O)N(c1cccnc1)c1ccc(F)cc12.Cl,-13.77,-0.2281 and -37.56
Cc1noc(C)c1C(=O)N(C)C(C)c1ccncc1 (stereo not drawn),-8.543,9.076 and -8.917
O=C(O)C(F)(F)F.O=C(O)C(F)(F)F.O=C(O)C(F)(F)F.[H][C@]12CCCC(N3CCN(c4ncccn4)CC3)[C@@]1([H])CN(CC1CC1)C2 (stereo partly drawn),-2.246,7.033 and 1.861
CC(=O)NCc1nn(C)c2c1CN(Cc1ccsc1)C2.O=C(O)C(F)(F)F,-4.62,-1.435
O=C(CCCc1cn[nH]c1)N1C[C@@H](CN2CCCC2)C[C@H](CO)C1,4.748,22.64
O=C(O)C(F)(F)F.O=C(O)C(F)(F)F.O=C(O)C(F)(F)F.[H][C@]12C[C@@H](CN(C)C)N(C)[C@@]1([H])CCN(c1ncc(C)cn1)C2,-0.4368,-11.54 and -4.101
CC(=O)N1CCN(C(=O)Cc2cnc(-c3c(Cl)cccc3Cl)s2)CC1,-11.43,12.83
CCC(CNC(=O)c1nc(=O)[nH][nH]1)Oc1cccc(F)c1 (stereo not drawn),0.51,-9.781
CCn1cnnc1CNC(=O)N1CCCC1,-13.57,-17.51
[H][C@@]12CS(=O)(=O)C[C@]1([H])N(C(=O)c1cc(C(C)C)on1)CCN2CC1CC1,0.4264 and -5.169,-6.998
Cc1ccc2cc(CN(C)Cc3ncc[nH]3)c(=O)[nH]c2c1,-5.958,-1.881 and -19.34
Cc1nc(N2CCC3(CCCN(C(C)C)C3=O)C2)c2sccc2n1 (stereo not drawn),1.591,3.124
Cn1cc(NC(=O)N2CCCC2c2ccccn2)ccc1=O (stereo not drawn),-5.398,7.56
O=C(Nc1cccc2ccccc12)N1CCC(N2CCSCC2)CC1,-11.41,-6.275
NC(=O)COc1ccc(CN2CCNC(C(=O)NC3CC3)C2)cc1Cl (stereo not drawn),22.63,3.835 and -3.38
CCc1cccc(C)c1NC(=O)C1CC(=O)N(Cc2ccccn2)C1 (stereo not drawn),-4.562,-3.852
CC(C)CN1Cc2nc(N3CCCC3)ncc2C1=O,6.001,71.42
CCC(Nc1ccc(CCN2CCCCC2)cc1)C(N)=O (stereo not drawn),8.735,26.33

The first 6 entries again:

{"compound": "O=C(COCC(F)(F)C(F)F)N1CCC(c2ncc[nH]2)CC1", "Mtb cholesterol medium": -2.737, "Mtb glucose medium": -25.17}
{"compound": "Cc1cnn(C2(C(=O)O)CCN(Cc3oc4ccccc4c3C)CC2)c1", "Mtb cholesterol medium": 0.004782, "Mtb glucose medium": -20}
{"compound": "Cc1ccccc1C1CCN(C(=O)CCNC(=O)C(C)(C)C)C1", "stereo": "stereo not drawn", "Mtb cholesterol medium": -2.861, "Mtb glucose medium": 14.86}
{"compound": "CNC(=O)c1nc2c(s1)CCN(C(=O)c1ccccc1)CC2", "Mtb cholesterol medium": -4.35, "Mtb glucose medium": "13.13 and -2.675"}
{"compound": "COc1cccc(-c2n[nH]c3c2CN(C(=O)c2ccncc2)CC3)c1", "Mtb cholesterol medium": "-2.827 and 10.1", "Mtb glucose medium": 1.749}
{"compound": "CS(=O)(=O)NCc1cc2n(n1)CCCN(Cc1cc3ccccc3o1)C2", "Mtb cholesterol medium": -5.666, "Mtb glucose medium": -9.311}